# Assay results: paper PMC5022029
# By UniProt entry, the sequences of proteins in these tests, tags left out. Where a name states a change or a piece, a line headed by the entry shows the natural chain unless it says otherwise.
# UniProt Q96D31: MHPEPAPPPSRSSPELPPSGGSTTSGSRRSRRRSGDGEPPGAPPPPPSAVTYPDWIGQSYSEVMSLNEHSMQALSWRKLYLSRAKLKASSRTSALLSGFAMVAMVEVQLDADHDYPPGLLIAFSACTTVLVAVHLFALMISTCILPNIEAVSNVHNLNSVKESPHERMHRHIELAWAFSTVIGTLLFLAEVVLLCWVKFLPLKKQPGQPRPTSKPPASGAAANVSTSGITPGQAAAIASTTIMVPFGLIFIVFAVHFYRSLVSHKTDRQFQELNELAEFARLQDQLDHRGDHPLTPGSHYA
# Results are given in words; binding and its absence hold for the method and conditions named. Binding seen in cells or lysates may run through a third protein. Some entries that bind do so weakly or less than the wild type.
# Target: human Orai1 S239A, C-terminally GFP-tagged (Orai1S239A-GFP) (human) (UniProt Q96D31)
# Experiment: FRET or BRET; TIRF-FRET (sensitized emission, apparent EFRET) in HEKS1 cells (stably expressing STIM1) co-expressing GFP- and RFP-tagged Orai1 subunits, after Tg-induced store depletion; control or 10 min pretreatment with 1 mM H2O2
substance,measurement,value
"human Orai1 S239A, C-terminally GFP-tagged (Orai1S239A-GFP) (from UniProt Q96D31 1-301)",binding,binds
